PubChem BioAssay AID1259254 – NCATS – 2017

Aim: 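Genome-wide screen for genes that prevent DNA re-replication in cancer cells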 (primary screen)
System: human HCT116 colorectal cancer cells
Reagent: single siRNA against human genes
Duration: 3 days
Measurement: 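Imaged Hoechst DNA stain sorts each cell into a cycle phase by DNA amount; per plate, G2 fraction set to 0% for non-targeting and 100% for GMNN siRNA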
Reading the numbers: G2 robust z-score and G2 cells, % of GMNN control: higher = more G2 cells, more excess DNA replication; raw share of cells in G2: higher = larger share of cells with G2 DNA content
Hit rule: 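An siRNA counts as active if its G2 robust z-score lies at least 5 MADs above the screen median; here such calls match roughly 38% of GMNN control or more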
In all, the deposit lists about 59,000 reagents; below is an unselected part. Over the whole deposit, about 1,550 (2.6%) are marked active. 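G2 share is only a proxy for re-replication; each gene was hit by three separate siRNAs, and active genes were retested.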 Raw values vary from plate to plate and are shown uncorrected. Entries without a mark were called inactive. Reagents against one gene are numbered here. Reagent sequences are not shown. Not given: the amount of reagent.

target | reagent no. | G2 robust z-score | G2 cells, % of GMNN control | raw share of cells in G2 (%)
NECTIN2 (nectin cell adhesion molecule 2) | 1 | 2.36 | 19.6 | 11.7
NECTIN2 (nectin cell adhesion molecule 2) | 2 | -0.84 | -2.94 | 3.56
NECTIN2 (nectin cell adhesion molecule 2) | 3 | -0.779 | -2.51 | 3.31
DMAC1 (distal membrane arm assembly component 1) | 1 | 0.735 | 8.14 | 7.54
DMAC1 (distal membrane arm assembly component 1) | 2 | 2.08 | 17.6 | 8.53
DMAC1 (distal membrane arm assembly component 1) | 3 | 0.245 | 4.69 | 4.41
LINC01973 (long independently transcribed non-coding RNA 1973) | 1 | -0.831 | -2.88 | 2.35
LINC01973 (long independently transcribed non-coding RNA 1973) | 2 | 0.311 | 5.15 | 5.1
LINC01973 (long independently transcribed non-coding RNA 1973) | 3 | 0.781 | 8.46 | 7.48
MAGEB1 (MAGE family member B1) | 1 | -0.756 | -2.35 | 3.97
MAGEB1 (MAGE family member B1) | 2 | 1.13 | 10.9 | 8.53
MAGEB1 (MAGE family member B1) | 3 | 3.02 | 24.2 | 12.1
BCL7C (BAF chromatin remodeling complex subunit BCL7C) | 1 | -1.47 | -7.39 | 1.99
BCL7C (BAF chromatin remodeling complex subunit BCL7C) | 2 | 0.0255 | 3.15 | 5.26
BCL7C (BAF chromatin remodeling complex subunit BCL7C) | 3 | -0.17 | 1.77 | 4.05
HOGA1 (4-hydroxy-2-oxoglutarate aldolase 1) | 1 | -0.725 | -2.13 | 1.19
HOGA1 (4-hydroxy-2-oxoglutarate aldolase 1) | 2 | -0.723 | -2.12 | 3.24
HOGA1 (4-hydroxy-2-oxoglutarate aldolase 1) | 3 | 0.644 | 7.5 | 5.56
PSMF1 (proteasome inhibitor subunit 1) | 1 | -0.422 | 0.000976 | 5.33
PSMF1 (proteasome inhibitor subunit 1) | 2 | -0.118 | 2.13 | 4.83
PSMF1 (proteasome inhibitor subunit 1) | 3 | 0.452 | 6.15 | 5.64
LRFN2 | 1 | 0.647 | 7.52 | 7.01
LRFN2 | 2 | 0.531 | 6.71 | 6.66
LRFN2 | 3 | -0.155 | 1.87 | 6.42
IGIP (IgA inducing protein) | 1 | -0.265 | 1.11 | 4.05
IGIP (IgA inducing protein) | 2 | 0.469 | 6.27 | 5.79
IGIP (IgA inducing protein) | 3 | 0.274 | 4.9 | 4.78
ITLN2 (intelectin 2) | 1 | 1.01 | 10 | 10.7
ITLN2 (intelectin 2) | 2 | 0.713 | 7.98 | 7.62
ITLN2 (intelectin 2) | 3 | -0.165 | 1.81 | 5.46
DPY19L3 (dpy-19 like C-mannosyltransferase 3) | 1 | -0.0892 | 2.34 | 3.88
DPY19L3 (dpy-19 like C-mannosyltransferase 3) | 2 | -0.499 | -0.544 | 2.88
DPY19L3 (dpy-19 like C-mannosyltransferase 3) | 3 | -0.0151 | 2.86 | 4.79
DPY19L3 (dpy-19 like C-mannosyltransferase 3) | 4 | 0.177 | 4.21 | 4.21
DPY19L3 (dpy-19 like C-mannosyltransferase 3) | 5 | -0.295 | 0.891 | 4.13
DPY19L3 (dpy-19 like C-mannosyltransferase 3) | 6 | -0.876 | -3.2 | 1.92
VAMP1 (vesicle associated membrane protein 1) | 1 | 0.295 | 5.04 | 7.37
VAMP1 (vesicle associated membrane protein 1) | 2 | -0.628 | -1.45 | 3.32
VAMP1 (vesicle associated membrane protein 1) | 3 | 1.76 | 15.4 | 8.79
CNGB3 (cyclic nucleotide gated channel subunit beta 3) | 1 | 0.945 | 9.62 | 8.79
CNGB3 (cyclic nucleotide gated channel subunit beta 3) | 2 | -0.692 | -1.9 | 4.14
CNGB3 (cyclic nucleotide gated channel subunit beta 3) | 3 | 1.12 | 10.8 | 8.6
CARS1 (cysteinyl-tRNA synthetase 1) | 1 | -0.679 | -1.81 | 3.32
CARS1 (cysteinyl-tRNA synthetase 1) | 2 | -0.213 | 1.47 | 5.22
CARS1 (cysteinyl-tRNA synthetase 1) | 3 | -0.841 | -2.95 | 4.02

Entries listed so far whose target name begins with N or n:
target | reagent no. | G2 robust z-score | G2 cells, % of GMNN control | raw share of cells in G2 (%)
NECTIN2 (nectin cell adhesion molecule 2) | 1 | 2.36 | 19.6 | 11.7
NECTIN2 (nectin cell adhesion molecule 2) | 2 | -0.84 | -2.94 | 3.56
NECTIN2 (nectin cell adhesion molecule 2) | 3 | -0.779 | -2.51 | 3.31

Additional entries follow:
target | reagent no. | G2 robust z-score | G2 cells, % of GMNN control | raw share of cells in G2 (%)
CHSY3 (chondroitin sulfate synthase 3) | 1 | -0.488 | -0.463 | 5.7
CHSY3 (chondroitin sulfate synthase 3) | 2 | 0.862 | 9.03 | 8.49
CHSY3 (chondroitin sulfate synthase 3) | 3 | -0.375 | 0.326 | 4.4
NOXO1 (NADPH oxidase organizer 1) | 1 | 1.86 | 16.1 | 10.5
NOXO1 (NADPH oxidase organizer 1) | 2 | 3.85 | 30.1 | 12.3
NOXO1 (NADPH oxidase organizer 1) | 3 | -0.101 | 2.25 | 2.48
VGLL3 (vestigial like family member 3) | 1 | -0.886 | -3.26 | 2.65
VGLL3 (vestigial like family member 3) | 2 | 1.08 | 10.6 | 8.01
VGLL3 (vestigial like family member 3) | 3 | 4.01 | 31.2 | 18
RNF151 (ring finger protein 151) | 1 | 1.52 | 13.7 | 7.14
RNF151 (ring finger protein 151) | 2 | -0.71 | -2.03 | 2.36
RNF151 (ring finger protein 151) | 3 | -0.908 | -3.42 | 2.68
MTNAP1 (mitochondrial nucleoid associated protein 1) | 1 | -0.0074 | 2.92 | 5.64
MTNAP1 (mitochondrial nucleoid associated protein 1) | 2 | 1.08 | 10.6 | 8.51
MTNAP1 (mitochondrial nucleoid associated protein 1) | 3 | -0.138 | 1.99 | 3.77
KRTAP9-2 (keratin associated protein 9-2) | 1 | 0.0468 | 3.3 | 5.2
KRTAP9-2 (keratin associated protein 9-2) | 2 | -0.0835 | 2.38 | 4.16
KRTAP9-2 (keratin associated protein 9-2) | 3 | 0.732 | 8.12 | 4.87
ADAMTS6 (ADAM metallopeptidase with thrombospondin type 1 motif 6) | 1 | -0.672 | -1.76 | 4.94
ADAMTS6 (ADAM metallopeptidase with thrombospondin type 1 motif 6) | 2 | -0.381 | 0.284 | 5.01
ADAMTS6 (ADAM metallopeptidase with thrombospondin type 1 motif 6) | 3 | -0.979 | -3.92 | 2.45
LOC643085 (retired record) | 1 | -0.976 | -3.9 | 2.15
LOC643085 (retired record) | 2 | -1.47 | -7.37 | 0.621
LOC643085 (retired record) | 3 | -0.941 | -3.65 | 2.08
